Taken from: PubChem BioAssay AID1259254 (NCATS, 2017)
Shown is a random part of about 59,000 reagents tested. About 1,550 of them (2.6%) were called active. 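G2 share is only a proxy for re-replication; each gene was hit by three separate siRNAs, and active genes were retested.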 Reagents against one gene are numbered here. Further read-outs or replicates are left out here. No sequences are given here. Not stated in the record: the amount of reagent.

- Test: 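Finding genes that stop cells copying their DNA twice in one cycle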 (primary screen)
- System: human HCT116 colorectal cancer cells
- Reagent: single siRNA against human genes
- Timing: 3 days
- Measured: 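Nuclei stained with Hoechst and imaged; cell-cycle phase assigned by DNA content; G2 share scaled per plate, non-targeting siRNA 0%, GMNN siRNA 100%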
- Reading the numbers: G2 robust z-score: higher = more G2 cells, more excess DNA replication
- Rule for the call: 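An siRNA counts as active if its G2 robust z-score lies at least 5 MADs above the screen median; here such calls match roughly 38% of GMNN control or more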

{"gene": "SMC6 (structural maintenance of chromosomes 6)", "reagent": 1, "G2 robust z-score": 0.404, "Outcome": "inactive"}
{"gene": "SMC6 (structural maintenance of chromosomes 6)", "reagent": 2, "G2 robust z-score": 1.52, "Outcome": "inactive"}
{"gene": "SMC6 (structural maintenance of chromosomes 6)", "reagent": 3, "G2 robust z-score": -0.604, "Outcome": "inactive"}
{"gene": "TEX29 (testis expressed 29)", "reagent": 1, "G2 robust z-score": -0.454, "Outcome": "inactive"}
{"gene": "TEX29 (testis expressed 29)", "reagent": 2, "G2 robust z-score": -0.506, "Outcome": "inactive"}
{"gene": "TEX29 (testis expressed 29)", "reagent": 3, "G2 robust z-score": 0.125, "Outcome": "inactive"}
{"gene": "DMRT3 (doublesex and mab-3 related transcription factor 3)", "reagent": 1, "G2 robust z-score": 0.898, "Outcome": "inactive"}
{"gene": "DMRT3 (doublesex and mab-3 related transcription factor 3)", "reagent": 2, "G2 robust z-score": 3.04, "Outcome": "inactive"}
{"gene": "DMRT3 (doublesex and mab-3 related transcription factor 3)", "reagent": 3, "G2 robust z-score": 0.732, "Outcome": "inactive"}
{"gene": "ADORA3 (adenosine A3 receptor)", "reagent": 1, "G2 robust z-score": 2.65, "Outcome": "inactive"}
{"gene": "ADORA3 (adenosine A3 receptor)", "reagent": 2, "G2 robust z-score": 1.17, "Outcome": "inactive"}
{"gene": "ADORA3 (adenosine A3 receptor)", "reagent": 3, "G2 robust z-score": -1.15, "Outcome": "inactive"}
{"gene": "CYLC1 (cylicin 1)", "reagent": 1, "G2 robust z-score": -1.06, "Outcome": "inactive"}
{"gene": "CYLC1 (cylicin 1)", "reagent": 2, "G2 robust z-score": -0.315, "Outcome": "inactive"}
{"gene": "CYLC1 (cylicin 1)", "reagent": 3, "G2 robust z-score": -0.526, "Outcome": "inactive"}
{"gene": "GSKIP (GSK3B interacting protein)", "reagent": 1, "G2 robust z-score": -0.304, "Outcome": "inactive"}
{"gene": "GSKIP (GSK3B interacting protein)", "reagent": 2, "G2 robust z-score": 0.508, "Outcome": "inactive"}
{"gene": "GSKIP (GSK3B interacting protein)", "reagent": 3, "G2 robust z-score": 0.551, "Outcome": "inactive"}

Continued (4 carried over from the part before).
{"gene": "CYLC1 (cylicin 1)", "reagent": 3, "G2 robust z-score": -0.526, "Outcome": "inactive"}
{"gene": "GSKIP (GSK3B interacting protein)", "reagent": 1, "G2 robust z-score": -0.304, "Outcome": "inactive"}
{"gene": "GSKIP (GSK3B interacting protein)", "reagent": 2, "G2 robust z-score": 0.508, "Outcome": "inactive"}
{"gene": "GSKIP (GSK3B interacting protein)", "reagent": 3, "G2 robust z-score": 0.551, "Outcome": "inactive"}
{"gene": "MAU2", "reagent": 1, "G2 robust z-score": -0.408, "Outcome": "inactive"}
{"gene": "MAU2", "reagent": 2, "G2 robust z-score": 5.03, "Outcome": "active"}
{"gene": "MAU2", "reagent": 3, "G2 robust z-score": -1.1, "Outcome": "inactive"}
{"gene": "DARS2 (aspartyl-tRNA synthetase 2, mitochondrial)", "reagent": 1, "G2 robust z-score": -0.991, "Outcome": "inactive"}
{"gene": "DARS2 (aspartyl-tRNA synthetase 2, mitochondrial)", "reagent": 2, "G2 robust z-score": -1.39, "Outcome": "inactive"}
{"gene": "DARS2 (aspartyl-tRNA synthetase 2, mitochondrial)", "reagent": 3, "G2 robust z-score": -0.841, "Outcome": "inactive"}
{"gene": "CDRT4 (CMT1A duplicated region transcript 4)", "reagent": 1, "G2 robust z-score": 0.986, "Outcome": "inactive"}
{"gene": "CDRT4 (CMT1A duplicated region transcript 4)", "reagent": 2, "G2 robust z-score": 0.343, "Outcome": "inactive"}
{"gene": "CDRT4 (CMT1A duplicated region transcript 4)", "reagent": 3, "G2 robust z-score": 0.214, "Outcome": "inactive"}
{"gene": "ANKRD49 (ankyrin repeat domain 49)", "reagent": 1, "G2 robust z-score": 0.597, "Outcome": "inactive"}
{"gene": "ANKRD49 (ankyrin repeat domain 49)", "reagent": 2, "G2 robust z-score": 0.0291, "Outcome": "inactive"}
{"gene": "ANKRD49 (ankyrin repeat domain 49)", "reagent": 3, "G2 robust z-score": -0.326, "Outcome": "inactive"}
